The exact form of at least one protein or probe is not confirmed.
System: IbAITR5 (Ipomoea batatas)
Assay: EMSA
Conditions: 150x unlabelled probe used as competitor; EMSA per manufacturer's instructions (Thermo Fisher Scientific); pH and temperature not stated; recombinant protein; protein details: GST (pGEX-6P-1); label: biotin

## AGTCGTTTTGAACGTGACAGTTATAGAC (double strand) [IbSGR1 promoter NACRS probe (-871 to -844)]
  binding result: binds

Reference: article PMC10028406
